Experimental data taken from the supplement of paper PMC12067093, “Discovery and optimisation of a covalent ligand for TRIM25 and its application to targeted protein ubiquitination” (Chemical Science, 2025).
The list shows a part of the results.

Chains of the proteins cited; added tags and fusions are not shown. Lines headed by an entry give the natural chain unless they say otherwise; changes in a name come on top.
UniProt Q00839, whole entry, looked up: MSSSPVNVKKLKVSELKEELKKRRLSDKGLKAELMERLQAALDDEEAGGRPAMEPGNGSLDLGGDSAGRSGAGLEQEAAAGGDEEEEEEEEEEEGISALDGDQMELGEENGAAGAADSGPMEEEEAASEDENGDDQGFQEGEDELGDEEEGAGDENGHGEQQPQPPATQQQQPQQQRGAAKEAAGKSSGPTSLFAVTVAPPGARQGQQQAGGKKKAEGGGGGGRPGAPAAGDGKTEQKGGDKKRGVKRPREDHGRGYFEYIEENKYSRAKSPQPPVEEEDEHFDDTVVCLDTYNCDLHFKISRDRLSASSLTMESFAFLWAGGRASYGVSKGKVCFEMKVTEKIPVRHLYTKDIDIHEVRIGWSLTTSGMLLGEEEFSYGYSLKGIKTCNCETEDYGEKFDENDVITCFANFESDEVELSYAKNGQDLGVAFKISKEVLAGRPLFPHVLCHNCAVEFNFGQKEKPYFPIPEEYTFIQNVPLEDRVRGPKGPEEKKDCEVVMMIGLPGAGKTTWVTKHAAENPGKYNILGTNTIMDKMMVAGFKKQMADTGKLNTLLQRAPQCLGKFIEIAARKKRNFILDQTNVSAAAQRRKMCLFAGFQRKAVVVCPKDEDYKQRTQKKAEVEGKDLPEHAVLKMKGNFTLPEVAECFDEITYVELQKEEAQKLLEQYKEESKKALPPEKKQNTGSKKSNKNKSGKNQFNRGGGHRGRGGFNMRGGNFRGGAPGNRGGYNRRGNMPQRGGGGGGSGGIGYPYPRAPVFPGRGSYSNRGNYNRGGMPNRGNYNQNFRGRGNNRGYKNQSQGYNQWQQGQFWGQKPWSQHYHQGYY
UniProt P52597: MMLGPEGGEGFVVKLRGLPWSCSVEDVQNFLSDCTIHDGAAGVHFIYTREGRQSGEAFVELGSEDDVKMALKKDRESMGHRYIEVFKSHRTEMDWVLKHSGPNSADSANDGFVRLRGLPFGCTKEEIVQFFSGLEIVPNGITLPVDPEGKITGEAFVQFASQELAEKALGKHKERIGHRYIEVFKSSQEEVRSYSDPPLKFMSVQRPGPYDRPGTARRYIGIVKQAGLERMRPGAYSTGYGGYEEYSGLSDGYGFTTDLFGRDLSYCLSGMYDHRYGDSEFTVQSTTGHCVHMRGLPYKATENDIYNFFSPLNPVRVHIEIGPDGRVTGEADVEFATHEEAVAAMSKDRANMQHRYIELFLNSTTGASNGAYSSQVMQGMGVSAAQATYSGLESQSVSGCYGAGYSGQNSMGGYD
UniProt Q0VDF9: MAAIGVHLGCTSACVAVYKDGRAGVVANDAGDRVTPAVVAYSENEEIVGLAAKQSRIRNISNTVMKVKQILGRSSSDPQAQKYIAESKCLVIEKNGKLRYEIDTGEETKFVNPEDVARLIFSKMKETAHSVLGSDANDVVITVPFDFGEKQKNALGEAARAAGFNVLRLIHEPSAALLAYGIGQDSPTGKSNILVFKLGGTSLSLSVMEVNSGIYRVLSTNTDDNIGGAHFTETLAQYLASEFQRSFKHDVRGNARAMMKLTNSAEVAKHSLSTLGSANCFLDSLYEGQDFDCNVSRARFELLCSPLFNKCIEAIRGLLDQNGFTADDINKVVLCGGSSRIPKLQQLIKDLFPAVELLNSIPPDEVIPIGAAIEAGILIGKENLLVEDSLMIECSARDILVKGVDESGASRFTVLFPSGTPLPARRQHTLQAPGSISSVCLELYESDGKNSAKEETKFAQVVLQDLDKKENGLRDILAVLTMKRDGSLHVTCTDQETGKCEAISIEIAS
UniProt P34932: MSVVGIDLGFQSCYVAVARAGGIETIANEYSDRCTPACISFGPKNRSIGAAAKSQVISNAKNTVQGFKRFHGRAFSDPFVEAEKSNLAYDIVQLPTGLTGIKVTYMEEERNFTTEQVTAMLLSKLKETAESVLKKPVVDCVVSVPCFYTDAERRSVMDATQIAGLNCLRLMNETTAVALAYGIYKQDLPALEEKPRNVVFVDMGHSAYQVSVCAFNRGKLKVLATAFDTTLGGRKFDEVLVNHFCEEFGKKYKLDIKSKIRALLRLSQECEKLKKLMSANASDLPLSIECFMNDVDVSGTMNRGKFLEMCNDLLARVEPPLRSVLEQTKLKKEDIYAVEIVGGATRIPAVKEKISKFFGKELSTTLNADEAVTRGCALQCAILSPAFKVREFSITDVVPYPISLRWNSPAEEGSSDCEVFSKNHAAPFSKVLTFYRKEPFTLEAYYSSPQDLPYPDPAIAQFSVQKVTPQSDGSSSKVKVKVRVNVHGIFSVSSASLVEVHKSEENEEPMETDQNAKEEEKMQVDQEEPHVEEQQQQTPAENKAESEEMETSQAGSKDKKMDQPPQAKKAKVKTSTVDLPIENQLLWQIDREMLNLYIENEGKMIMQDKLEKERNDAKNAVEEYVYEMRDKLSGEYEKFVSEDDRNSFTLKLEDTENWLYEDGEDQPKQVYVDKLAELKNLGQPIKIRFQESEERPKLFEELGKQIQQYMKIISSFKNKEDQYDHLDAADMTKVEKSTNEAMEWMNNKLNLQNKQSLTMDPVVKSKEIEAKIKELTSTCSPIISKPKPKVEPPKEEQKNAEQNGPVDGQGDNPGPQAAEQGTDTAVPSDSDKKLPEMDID
UniProt P35914: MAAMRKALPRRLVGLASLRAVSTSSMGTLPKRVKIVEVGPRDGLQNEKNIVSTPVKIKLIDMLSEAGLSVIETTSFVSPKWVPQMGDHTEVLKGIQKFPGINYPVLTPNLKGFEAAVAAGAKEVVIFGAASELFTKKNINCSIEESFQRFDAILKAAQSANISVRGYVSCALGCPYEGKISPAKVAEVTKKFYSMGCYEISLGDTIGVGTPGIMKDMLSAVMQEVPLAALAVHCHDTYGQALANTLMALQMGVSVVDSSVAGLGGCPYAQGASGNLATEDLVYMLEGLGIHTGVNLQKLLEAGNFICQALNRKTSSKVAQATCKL
UniProt P31943: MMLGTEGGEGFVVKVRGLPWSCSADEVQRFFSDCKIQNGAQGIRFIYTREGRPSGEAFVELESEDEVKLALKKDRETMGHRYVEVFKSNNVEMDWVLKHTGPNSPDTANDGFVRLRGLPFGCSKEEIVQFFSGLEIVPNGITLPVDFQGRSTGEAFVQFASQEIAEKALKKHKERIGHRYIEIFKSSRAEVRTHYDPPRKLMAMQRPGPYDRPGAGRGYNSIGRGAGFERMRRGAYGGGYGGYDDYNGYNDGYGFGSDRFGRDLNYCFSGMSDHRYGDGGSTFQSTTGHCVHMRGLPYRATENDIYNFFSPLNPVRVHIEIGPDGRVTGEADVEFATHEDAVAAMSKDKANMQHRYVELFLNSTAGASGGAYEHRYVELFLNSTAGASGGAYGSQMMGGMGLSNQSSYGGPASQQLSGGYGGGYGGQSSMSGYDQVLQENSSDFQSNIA
UniProt Q1KMD3: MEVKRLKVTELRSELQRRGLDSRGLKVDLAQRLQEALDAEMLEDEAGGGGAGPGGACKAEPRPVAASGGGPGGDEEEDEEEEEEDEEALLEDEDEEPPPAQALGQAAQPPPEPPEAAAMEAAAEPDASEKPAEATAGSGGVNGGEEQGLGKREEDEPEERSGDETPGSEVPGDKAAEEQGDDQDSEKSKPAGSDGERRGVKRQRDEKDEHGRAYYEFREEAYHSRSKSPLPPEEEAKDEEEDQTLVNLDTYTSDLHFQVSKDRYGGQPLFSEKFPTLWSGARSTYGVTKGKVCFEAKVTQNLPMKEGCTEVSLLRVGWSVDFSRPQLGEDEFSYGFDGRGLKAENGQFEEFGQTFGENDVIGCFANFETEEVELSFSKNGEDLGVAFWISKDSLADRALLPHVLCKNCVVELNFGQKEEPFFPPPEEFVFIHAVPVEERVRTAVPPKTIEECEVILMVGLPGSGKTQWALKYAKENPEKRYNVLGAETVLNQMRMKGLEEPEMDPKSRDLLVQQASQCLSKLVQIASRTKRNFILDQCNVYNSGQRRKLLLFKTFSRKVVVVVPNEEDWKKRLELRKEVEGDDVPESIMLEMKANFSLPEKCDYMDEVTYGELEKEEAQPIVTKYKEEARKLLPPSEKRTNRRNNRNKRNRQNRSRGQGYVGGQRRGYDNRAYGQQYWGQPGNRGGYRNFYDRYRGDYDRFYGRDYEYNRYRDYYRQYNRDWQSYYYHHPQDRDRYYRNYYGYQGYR
UniProt Q99714: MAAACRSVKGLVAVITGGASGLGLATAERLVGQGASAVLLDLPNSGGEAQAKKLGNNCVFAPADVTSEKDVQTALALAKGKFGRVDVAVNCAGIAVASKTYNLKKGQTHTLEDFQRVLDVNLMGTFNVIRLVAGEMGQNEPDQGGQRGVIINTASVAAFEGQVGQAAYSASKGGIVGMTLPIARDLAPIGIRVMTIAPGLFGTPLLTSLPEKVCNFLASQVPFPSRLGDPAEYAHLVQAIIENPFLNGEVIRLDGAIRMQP
UniProt P51991: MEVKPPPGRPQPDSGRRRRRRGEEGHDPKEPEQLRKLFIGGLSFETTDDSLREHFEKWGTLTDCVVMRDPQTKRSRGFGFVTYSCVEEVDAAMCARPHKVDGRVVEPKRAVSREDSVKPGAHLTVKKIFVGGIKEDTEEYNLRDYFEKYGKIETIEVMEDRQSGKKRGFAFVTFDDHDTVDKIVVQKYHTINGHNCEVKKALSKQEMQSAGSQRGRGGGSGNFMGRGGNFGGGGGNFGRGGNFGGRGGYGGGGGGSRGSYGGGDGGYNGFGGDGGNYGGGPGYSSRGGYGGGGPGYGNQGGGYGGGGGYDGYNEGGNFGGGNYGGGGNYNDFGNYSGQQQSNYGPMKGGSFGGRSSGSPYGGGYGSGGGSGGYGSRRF
UniProt Q13151: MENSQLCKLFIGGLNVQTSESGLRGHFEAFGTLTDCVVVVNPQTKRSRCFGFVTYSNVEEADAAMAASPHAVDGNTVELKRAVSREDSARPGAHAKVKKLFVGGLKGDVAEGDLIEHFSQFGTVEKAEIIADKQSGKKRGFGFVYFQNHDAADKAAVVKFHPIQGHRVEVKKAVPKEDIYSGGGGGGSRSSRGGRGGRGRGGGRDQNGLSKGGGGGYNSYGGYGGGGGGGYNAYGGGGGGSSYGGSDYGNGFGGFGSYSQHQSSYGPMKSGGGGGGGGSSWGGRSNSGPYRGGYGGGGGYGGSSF
UniProt P14866: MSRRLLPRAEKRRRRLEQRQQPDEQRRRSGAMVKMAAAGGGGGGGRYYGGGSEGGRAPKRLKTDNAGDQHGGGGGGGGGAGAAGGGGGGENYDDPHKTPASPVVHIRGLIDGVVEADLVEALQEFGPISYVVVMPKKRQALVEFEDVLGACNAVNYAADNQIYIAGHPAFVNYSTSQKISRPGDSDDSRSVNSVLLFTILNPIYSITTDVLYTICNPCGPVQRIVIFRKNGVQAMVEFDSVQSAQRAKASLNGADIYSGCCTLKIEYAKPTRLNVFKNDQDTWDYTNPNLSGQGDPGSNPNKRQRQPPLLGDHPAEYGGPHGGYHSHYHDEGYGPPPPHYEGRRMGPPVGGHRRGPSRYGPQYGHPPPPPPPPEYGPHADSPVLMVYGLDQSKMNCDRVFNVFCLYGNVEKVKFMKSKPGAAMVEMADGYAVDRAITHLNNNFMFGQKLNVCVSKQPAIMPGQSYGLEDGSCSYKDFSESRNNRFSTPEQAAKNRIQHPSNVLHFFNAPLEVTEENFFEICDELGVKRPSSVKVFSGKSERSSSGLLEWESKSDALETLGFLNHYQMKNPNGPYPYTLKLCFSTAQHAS
UniProt P08238, whole entry, looked up: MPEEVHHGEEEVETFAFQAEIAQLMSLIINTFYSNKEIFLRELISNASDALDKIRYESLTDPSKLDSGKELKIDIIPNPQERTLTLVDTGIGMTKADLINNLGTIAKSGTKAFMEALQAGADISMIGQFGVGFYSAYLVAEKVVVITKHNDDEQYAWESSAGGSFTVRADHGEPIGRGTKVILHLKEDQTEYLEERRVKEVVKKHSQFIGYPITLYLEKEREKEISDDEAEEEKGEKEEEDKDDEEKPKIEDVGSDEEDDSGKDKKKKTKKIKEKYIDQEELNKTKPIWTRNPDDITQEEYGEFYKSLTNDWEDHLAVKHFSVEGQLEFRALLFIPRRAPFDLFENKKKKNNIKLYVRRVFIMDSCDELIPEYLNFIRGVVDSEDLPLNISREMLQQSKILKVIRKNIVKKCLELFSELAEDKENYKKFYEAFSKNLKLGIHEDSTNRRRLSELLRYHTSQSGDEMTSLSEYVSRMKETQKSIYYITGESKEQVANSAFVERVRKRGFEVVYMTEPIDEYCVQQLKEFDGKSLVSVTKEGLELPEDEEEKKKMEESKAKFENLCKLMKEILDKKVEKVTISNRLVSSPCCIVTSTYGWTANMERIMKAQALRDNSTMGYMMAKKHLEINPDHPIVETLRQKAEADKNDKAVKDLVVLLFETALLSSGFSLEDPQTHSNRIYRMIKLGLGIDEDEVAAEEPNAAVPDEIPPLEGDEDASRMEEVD

Compound: CC1Cc2ccccc2N1C(=O)C1CCCN(C1)C(=O)CCl (mixture of isomers) [TRIM25 ligand 11 (diastereomer mixture)]
Test: probe-labelled cysteine peptide fold change vs DMSO (competition) (log2 fold change); higher = less target engagement (more negative = stronger competition)
Conditions: THP-1, incubation time: 4 h
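Further: competitive chemoproteomic profiling in live THP-1 cells with an iodoacetamide desthiobiotin (IA-DTB) probe, comparing probe-labelled peptide intensities in compound-treated cells against DMSO-treated controls.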

Target	probe-labelled cysteine peptide fold change (10 µM)	probe-labelled cysteine peptide fold change (50 µM)
HNRNPU_Q00839_497_DCEVVMMIGLPGAGK (UniProt Q00839)	-0.0635	-0.00894
HNRNPF_P52597_290_YGDSEFTVQSTTGHCVHMR (UniProt P52597)	0.0985	0.052
HSPA14_Q0VDF9_492_DGSLHVTCTDQETGK (UniProt Q0VDF9)	0.101	0.0738
HSPG2_P98160_4389_AQAGANTRPCPS (UniProt P98160)	0.478	0.124
HNRNPF_P52597_267_DLSYCLSGMYDHR (UniProt P52597)	0.0214	-0.017
HSPA4_P34932_270_LSQECEK (UniProt P34932)	0.083	0.0404
HSF1_Q00613_153_GKQECMDSK (UniProt Q00613)	-0.139	-0.128
HMGCL_P35914_141_NINCSIEESFQR (UniProt P35914)	0.0699	0.161
HNRNPH1_P31943_290_YGDGGSTFQSTTGHCVHMR (UniProt P31943)	0.0618	-0.211
HSPA14_Q0VDF9_304_FELLCSPLFNK (UniProt Q0VDF9)	0.0661	0.00935
HNRNPUL2_Q1KMD3_602_CDYMDEVTYGELEK (UniProt Q1KMD3)	0.074	-0.194
HSP90AA1_P07900_374_RVFIMDNCEELIPEYLNFIR (UniProt P07900)	-0.217	-0.189
HSPA4L_O95757_140_KPVADCVISIPSFFTDAER (UniProt O95757)	0.0605	0.121
HSD17B10_Q99714_214_VCNFLASQVPFPSR (UniProt Q99714)	-0.0273	0.168
HNRNPUL2_Q1KMD3_452_TIEECEVILMVGLPGSGK (UniProt Q1KMD3)	-0.0599	0.0666
HMGCR_P04035_382_CDSVEEETGINR (UniProt P04035)	0.0226	0.0105
HSPBP1_Q9NZL4_348_LLQTCFSSPADDSMDR (UniProt Q9NZL4)	0.0152	-0.0187
HNRNPA3_P51991_94_GFGFVTYSCVEEVDAAMCARPHK (UniProt P51991)	-0.197	-0.119
HSP90AA1_P07900_529_HGLEVIYMIEPIDEYCVQQLK (UniProt P07900)	0.00229	-0.0105

In another format: results already given.

| Target | probe-labelled cysteine peptide fold change (10 µM) | probe-labelled cysteine peptide fold change (50 µM) |
| --- | --- | --- |
| HSPA4_P34932_270_LSQECEK (UniProt P34932) | 0.083 | 0.0404 |
| HNRNPH1_P31943_290_YGDGGSTFQSTTGHCVHMR (UniProt P31943) | 0.0618 | -0.211 |

(next part)

Target	probe-labelled cysteine peptide fold change (10 µM)	probe-labelled cysteine peptide fold change (50 µM)
HSP90AA1_P07900_597+598_LVTSPCCIVTSTYGWTANMER (UniProt P07900)	0.0632	0.0503
HSD17B4_P51659_455_ELICHNQFSLFLVGSGGFGGKR (UniProt P51659)	-0.0969	-0.0518
HNRNPA0_Q13151_7_MENSQLCK (UniProt Q13151)	-0.164	0.025
HTATIP2_Q9BUP3_90_LDDYASAFQGHDVGFCCLGTTR (UniProt Q9BUP3)	0.237	0.32
HNRNPUL1_Q9BUJ2_532_AIVICPTDEDLK (UniProt Q9BUJ2)	-0.147	-0.132
HNRNPK_P61978_184+185_LFQECCPHSTDR (UniProt P61978)	-0.022	-0.0896
HSPA4_P34932_779_ELTSTCSPIISK (UniProt P34932)	0.0381	0.059
HPS4_Q9NQG7_63_CVSDISDSPPTLVR (UniProt Q9NQG7)	-0.0309	0.173
HMGCL_P35914_323_VAQATCK (UniProt P35914)	0.21	-0.0787
HNRNPL_P14866_472_QPAIMPGQSYGLEDGSCSYK (UniProt P14866)	-0.154	-0.0544
HSPA4_P34932_146_KPVVDCVVSVPCFYTDAER (UniProt P34932)	0.0249	-0.0163
HSP90AB1_P08238_521_RGFEVVYMTEPIDEYCVQQLK (UniProt P08238)	-0.0447	-0.173
HPS6_Q86YV9_141_LVWCEER (UniProt Q86YV9)	-0.0343	-0.0196
HNRNPL_P14866_260+261_ASLNGADIYSGCCTLK (UniProt P14866)	0.0282	0.195
HNRNPA3_P51991_196_YHTINGHNCEVK (UniProt P51991)	-0.00565	-0.0527
HP1BP3_Q5SSJ5_359_TCSTTALKK (UniProt Q5SSJ5)	-0.214	-0.218
HNRNPA3_P51991_196_YHTINGHNCEVKK (UniProt P51991)	-0.179	-0.163
HSP90AB1_P08238_412_CLELFSELAEDK (UniProt P08238)	0.038	0.0842
HNRNPU_Q00839_607_AVVVCPKDEDYK (UniProt Q00839)	-0.268	-0.176
